Results published in paper PMC5472717.
The exact form of at least one protein or probe is not confirmed.

System: Zur (zinc uptake regulator)
Assay: EMSA
Details: 90 nM Zur, 20 mM Tris-HCl pH 7.8, 50 mM KCl, 1 mM DTT, 0.1 mg/ml BSA, 5% glycerol, 0.1 ug poly(dI-dC) per 20 ul, 0-20 uM ZnSO4, room temperature 20 min, gel 5% PAGE in TB at 4 C, recombinant protein, label: 32P

GCACATGACAACGGTGTTCAGTGCC (double strand) [zitB 25 bp Zur-box probe (-63 to -39)]
binding result (20 uM Zn, single dimer complex): binds

CAAGGCACATGACAACGGTGTTCAGTGCCGCGT (double strand) [zitB 33 bp probe (-67 to -35)]
binding result (up to 20 uM Zn, dimer and tetramer complexes, letters put together from the description): binds
